In the supplement of paper PMC6411743:
± gives the standard deviation of the averaged measurements. This is a selection; strong and weak results do not stand in their true shares.

Sequences of proteins named here, by UniProt entry; tags and fusion partners are left off. A change or cut given only in a name is not applied to a line headed by its entry.
UniProt P14927: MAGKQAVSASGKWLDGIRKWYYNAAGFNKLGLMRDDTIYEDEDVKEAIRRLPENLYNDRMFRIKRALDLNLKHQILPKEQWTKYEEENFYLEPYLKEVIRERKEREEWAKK
UniProt P05387, whole entry: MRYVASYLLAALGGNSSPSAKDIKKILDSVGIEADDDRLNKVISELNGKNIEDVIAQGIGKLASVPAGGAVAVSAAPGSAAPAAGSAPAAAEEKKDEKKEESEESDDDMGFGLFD
UniProt P09693, whole entry: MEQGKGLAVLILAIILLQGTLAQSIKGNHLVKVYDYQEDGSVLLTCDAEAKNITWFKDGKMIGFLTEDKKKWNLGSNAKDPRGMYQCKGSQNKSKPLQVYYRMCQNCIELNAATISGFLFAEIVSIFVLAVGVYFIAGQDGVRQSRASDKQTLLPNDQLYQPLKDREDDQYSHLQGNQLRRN
UniProt P16278: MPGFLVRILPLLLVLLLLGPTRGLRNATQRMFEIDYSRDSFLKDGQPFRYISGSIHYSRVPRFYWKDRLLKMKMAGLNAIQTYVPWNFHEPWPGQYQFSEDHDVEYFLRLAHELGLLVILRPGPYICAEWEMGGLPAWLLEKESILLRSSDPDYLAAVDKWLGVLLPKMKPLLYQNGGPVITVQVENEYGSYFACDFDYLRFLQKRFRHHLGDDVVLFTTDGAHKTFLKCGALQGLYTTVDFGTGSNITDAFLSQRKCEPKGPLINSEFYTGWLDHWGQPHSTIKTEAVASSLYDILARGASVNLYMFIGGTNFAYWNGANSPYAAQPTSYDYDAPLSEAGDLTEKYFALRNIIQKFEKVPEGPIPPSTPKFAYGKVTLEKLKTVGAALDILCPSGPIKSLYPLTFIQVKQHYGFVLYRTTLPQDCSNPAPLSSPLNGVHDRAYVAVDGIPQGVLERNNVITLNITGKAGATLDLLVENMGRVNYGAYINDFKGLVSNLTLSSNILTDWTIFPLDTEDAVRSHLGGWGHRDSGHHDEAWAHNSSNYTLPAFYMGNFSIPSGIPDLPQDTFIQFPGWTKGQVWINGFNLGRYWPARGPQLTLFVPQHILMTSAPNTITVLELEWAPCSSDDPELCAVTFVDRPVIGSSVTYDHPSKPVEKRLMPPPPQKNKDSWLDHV
UniProt P07741: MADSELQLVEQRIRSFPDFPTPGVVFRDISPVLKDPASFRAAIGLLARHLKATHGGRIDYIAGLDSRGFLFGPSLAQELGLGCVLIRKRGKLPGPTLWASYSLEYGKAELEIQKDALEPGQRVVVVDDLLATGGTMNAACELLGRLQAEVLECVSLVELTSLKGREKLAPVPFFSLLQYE
UniProt P11717, whole entry: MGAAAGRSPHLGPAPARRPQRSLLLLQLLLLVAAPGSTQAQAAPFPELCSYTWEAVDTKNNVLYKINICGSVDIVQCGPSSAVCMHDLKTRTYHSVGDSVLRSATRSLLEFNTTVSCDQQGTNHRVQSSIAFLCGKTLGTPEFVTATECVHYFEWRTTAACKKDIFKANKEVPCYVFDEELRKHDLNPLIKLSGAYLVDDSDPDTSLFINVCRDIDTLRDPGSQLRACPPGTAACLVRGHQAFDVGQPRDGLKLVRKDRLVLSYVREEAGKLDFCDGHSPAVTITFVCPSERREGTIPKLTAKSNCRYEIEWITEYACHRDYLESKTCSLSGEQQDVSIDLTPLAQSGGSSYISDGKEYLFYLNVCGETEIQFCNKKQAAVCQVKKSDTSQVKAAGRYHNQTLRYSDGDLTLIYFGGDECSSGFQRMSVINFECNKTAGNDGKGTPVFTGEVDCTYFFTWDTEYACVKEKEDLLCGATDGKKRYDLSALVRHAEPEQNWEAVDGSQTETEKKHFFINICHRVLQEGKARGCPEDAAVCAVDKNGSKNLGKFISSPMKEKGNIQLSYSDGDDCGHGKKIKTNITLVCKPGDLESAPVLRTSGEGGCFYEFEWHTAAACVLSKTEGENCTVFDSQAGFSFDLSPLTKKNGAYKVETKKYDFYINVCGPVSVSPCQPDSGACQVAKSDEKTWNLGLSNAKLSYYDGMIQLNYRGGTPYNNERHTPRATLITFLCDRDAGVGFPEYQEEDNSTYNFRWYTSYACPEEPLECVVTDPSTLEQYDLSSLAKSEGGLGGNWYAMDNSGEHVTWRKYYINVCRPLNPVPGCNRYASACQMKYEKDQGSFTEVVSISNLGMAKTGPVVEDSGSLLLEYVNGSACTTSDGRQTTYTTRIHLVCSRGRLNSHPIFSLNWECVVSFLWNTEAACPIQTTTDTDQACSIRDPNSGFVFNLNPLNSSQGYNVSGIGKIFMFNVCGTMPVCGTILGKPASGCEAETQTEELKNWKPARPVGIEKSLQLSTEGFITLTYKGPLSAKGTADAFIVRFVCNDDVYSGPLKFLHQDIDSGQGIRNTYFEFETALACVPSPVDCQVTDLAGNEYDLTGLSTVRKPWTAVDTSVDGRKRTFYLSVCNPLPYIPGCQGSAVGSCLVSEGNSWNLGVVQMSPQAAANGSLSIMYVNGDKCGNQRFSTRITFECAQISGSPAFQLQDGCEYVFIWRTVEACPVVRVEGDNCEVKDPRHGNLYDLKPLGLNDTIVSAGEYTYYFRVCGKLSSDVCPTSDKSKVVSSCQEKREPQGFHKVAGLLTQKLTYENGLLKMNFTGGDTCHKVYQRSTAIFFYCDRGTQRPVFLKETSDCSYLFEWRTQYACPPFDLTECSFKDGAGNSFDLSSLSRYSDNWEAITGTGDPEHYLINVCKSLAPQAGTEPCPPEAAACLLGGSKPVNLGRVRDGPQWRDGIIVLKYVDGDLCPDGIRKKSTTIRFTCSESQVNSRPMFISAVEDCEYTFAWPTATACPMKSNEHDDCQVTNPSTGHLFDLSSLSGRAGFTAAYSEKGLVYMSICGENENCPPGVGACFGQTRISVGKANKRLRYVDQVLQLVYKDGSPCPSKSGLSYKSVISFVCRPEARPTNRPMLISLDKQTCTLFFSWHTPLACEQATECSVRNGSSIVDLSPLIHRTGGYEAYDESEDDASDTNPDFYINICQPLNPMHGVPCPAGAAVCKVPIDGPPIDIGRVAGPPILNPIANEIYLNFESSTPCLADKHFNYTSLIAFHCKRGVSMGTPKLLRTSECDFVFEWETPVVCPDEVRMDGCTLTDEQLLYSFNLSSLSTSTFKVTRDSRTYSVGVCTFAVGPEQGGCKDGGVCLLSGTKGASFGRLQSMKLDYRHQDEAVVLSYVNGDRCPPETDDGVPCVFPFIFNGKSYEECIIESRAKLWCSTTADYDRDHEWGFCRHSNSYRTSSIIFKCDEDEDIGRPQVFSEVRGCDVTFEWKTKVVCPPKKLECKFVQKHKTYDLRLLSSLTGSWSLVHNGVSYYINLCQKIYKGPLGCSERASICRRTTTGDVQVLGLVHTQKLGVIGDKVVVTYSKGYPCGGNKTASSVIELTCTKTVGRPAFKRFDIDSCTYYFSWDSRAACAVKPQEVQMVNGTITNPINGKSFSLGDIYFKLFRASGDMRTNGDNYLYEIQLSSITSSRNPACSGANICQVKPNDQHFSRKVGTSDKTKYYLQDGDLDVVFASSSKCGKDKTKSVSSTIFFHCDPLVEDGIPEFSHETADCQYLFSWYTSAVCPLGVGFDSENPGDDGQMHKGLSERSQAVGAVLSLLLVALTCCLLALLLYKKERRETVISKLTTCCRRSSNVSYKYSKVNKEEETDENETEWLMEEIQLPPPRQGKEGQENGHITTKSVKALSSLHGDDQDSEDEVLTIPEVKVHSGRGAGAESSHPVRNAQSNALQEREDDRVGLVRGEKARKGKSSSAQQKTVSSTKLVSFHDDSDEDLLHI
UniProt P04899, whole entry: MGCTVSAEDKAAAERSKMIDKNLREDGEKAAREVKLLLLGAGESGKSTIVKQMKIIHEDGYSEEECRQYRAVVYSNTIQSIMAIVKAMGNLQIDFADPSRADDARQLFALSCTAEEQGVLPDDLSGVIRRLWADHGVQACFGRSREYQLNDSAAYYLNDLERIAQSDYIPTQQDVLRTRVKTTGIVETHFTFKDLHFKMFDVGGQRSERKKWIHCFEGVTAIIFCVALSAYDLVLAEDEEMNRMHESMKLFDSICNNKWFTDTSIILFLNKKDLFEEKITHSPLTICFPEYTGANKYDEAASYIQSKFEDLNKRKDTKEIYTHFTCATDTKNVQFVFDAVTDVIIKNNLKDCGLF
UniProt P06396, whole entry: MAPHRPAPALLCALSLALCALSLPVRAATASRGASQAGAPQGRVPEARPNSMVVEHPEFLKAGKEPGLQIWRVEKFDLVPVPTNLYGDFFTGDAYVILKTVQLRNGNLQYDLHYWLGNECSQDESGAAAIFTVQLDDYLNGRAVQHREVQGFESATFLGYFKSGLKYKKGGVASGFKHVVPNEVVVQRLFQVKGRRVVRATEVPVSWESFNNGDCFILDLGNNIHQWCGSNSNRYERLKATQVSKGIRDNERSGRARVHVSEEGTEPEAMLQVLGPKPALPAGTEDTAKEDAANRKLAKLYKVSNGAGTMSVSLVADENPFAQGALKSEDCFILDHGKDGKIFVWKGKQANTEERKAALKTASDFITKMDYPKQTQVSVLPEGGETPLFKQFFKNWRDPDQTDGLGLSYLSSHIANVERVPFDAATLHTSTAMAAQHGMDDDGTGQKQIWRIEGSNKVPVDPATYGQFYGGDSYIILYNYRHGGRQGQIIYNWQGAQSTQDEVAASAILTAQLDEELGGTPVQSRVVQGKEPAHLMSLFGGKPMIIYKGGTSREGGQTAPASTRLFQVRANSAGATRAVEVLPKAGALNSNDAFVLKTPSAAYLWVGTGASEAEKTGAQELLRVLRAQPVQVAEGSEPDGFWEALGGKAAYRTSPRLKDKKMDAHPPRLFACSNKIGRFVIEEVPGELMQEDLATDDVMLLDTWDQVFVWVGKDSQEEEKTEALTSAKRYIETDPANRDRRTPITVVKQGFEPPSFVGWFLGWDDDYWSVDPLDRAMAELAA
UniProt P01137, whole entry: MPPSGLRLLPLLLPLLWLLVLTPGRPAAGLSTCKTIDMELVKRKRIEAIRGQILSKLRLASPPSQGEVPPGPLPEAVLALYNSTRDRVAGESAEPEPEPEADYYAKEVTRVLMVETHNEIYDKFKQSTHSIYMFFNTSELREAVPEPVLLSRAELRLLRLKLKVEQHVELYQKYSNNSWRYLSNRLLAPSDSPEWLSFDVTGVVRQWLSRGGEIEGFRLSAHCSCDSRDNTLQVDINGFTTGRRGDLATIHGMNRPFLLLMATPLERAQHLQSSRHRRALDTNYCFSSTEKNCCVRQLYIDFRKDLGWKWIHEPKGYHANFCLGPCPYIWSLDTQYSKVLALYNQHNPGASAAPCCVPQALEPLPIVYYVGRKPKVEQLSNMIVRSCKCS
UniProt P06756, whole entry: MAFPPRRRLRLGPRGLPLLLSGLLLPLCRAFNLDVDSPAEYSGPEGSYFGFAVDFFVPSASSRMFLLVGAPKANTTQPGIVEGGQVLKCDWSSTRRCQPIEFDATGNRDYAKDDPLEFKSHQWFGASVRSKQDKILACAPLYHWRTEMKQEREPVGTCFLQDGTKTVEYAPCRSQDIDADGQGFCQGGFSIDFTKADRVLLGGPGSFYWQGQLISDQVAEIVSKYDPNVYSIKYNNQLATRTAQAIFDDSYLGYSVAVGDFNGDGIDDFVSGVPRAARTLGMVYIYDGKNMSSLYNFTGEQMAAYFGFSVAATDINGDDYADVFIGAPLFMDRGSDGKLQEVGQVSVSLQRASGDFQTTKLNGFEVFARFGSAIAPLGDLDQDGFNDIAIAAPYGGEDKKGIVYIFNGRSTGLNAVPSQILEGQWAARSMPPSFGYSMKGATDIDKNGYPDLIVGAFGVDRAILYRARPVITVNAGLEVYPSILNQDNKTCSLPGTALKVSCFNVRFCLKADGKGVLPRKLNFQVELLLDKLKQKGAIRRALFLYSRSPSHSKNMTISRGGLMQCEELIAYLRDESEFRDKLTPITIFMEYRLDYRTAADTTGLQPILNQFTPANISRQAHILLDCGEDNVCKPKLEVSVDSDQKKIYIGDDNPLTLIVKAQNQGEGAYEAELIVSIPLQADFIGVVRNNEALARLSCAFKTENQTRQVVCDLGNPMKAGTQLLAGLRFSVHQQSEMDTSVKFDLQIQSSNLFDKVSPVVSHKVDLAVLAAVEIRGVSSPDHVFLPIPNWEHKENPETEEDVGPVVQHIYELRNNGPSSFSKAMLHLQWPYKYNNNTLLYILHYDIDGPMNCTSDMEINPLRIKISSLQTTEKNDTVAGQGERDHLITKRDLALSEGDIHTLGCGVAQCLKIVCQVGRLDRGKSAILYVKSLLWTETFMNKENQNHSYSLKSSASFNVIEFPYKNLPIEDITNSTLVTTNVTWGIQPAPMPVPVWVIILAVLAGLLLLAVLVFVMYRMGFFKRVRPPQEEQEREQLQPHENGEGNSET
UniProt P16401, whole entry: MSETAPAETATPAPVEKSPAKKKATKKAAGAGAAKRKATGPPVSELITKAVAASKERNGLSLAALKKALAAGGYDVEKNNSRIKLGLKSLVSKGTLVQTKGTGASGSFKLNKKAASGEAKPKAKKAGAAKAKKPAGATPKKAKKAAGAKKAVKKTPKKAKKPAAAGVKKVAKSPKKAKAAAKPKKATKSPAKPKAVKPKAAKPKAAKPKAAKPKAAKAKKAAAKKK

Compound: Nc1ncnc2c1ncn2[C@@H]1O[C@H](COP(=O)(O)OP(=O)(O)OP(=O)(O)O)[C@@H](O)[C@H]1O [adenosine triphosphate]
Assay: NP40-soluble protein abundance relative to vehicle (solubility fold change) (ratio); higher = more soluble protein in presence of ATP
In short: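 Eight concentrations, 0.1 to 10 mM, were tested on Jurkat crude lysate for 10 min at room temperature and then 3 min at 37 °C, in three independent experiments. The lysate was solubilised with 0.8% NP40 and benzonase, ultracentrifuged, and the supernatant TMT-labelled for LC-MS/MS. Each value is the fold change against the detergent-processed vehicle in its own replicate, from vsn-normalised intensities.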

Target	NP40-soluble protein abundance (concentration: 1mM)	NP40-soluble protein abundance (concentration: 2mM)	NP40-soluble protein abundance (concentration: 4mM)	NP40-soluble protein abundance (concentration: 6mM)	NP40-soluble protein abundance (concentration: 8mM)	NP40-soluble protein abundance (concentration: 10mM)
UQCRB (UniProt P14927)	0.953 ± 0.087	0.934 ± 0.05	0.913 ± 0.049	0.955 ± 0.072	0.908 ± 0.019	0.836 ± 0.063
RAC2 (UniProt P15153)	0.958 ± 0.034	0.955 ± 0.038	0.904 ± 0.07	0.937 ± 0.077	0.912 ± 0.083	0.921 ± 0.031
RPLP2 (UniProt P05387)	0.952 ± 0.11	0.902 ± 0.15	0.939 ± 0.069	1 ± 0.2	0.828 ± 0.042	0.95 ± 0.057
UniProt P09693	0.908 ± 0.038	0.926 ± 0.034	0.893 ± 0.043	0.96 ± 0.071	0.879 ± 0.045	0.832 ± 0.079
UniProt P16278 and related entries	0.97 ± 0.021	1 ± 0.043	0.992 ± 0.026	0.926 ± 0.034	0.922 ± 0.052	0.955 ± 0.015
APRT (UniProt P07741)	0.826 ± 0.056	0.87 ± 0.065	0.852 ± 0.018	0.735 ± 0.12	0.804 ± 0.021	0.85 ± 0.014
IGF2R (UniProt P11717)	0.949 ± 0.047	0.956 ± 0.039	0.926 ± 0.025	0.954 ± 0.064	0.902 ± 0.043	0.933 ± 0.0099
GNAI2 (UniProt P04899)	1.11 ± 0.087	1.07 ± 0.1	1.06 ± 0.12	1.03 ± 0.12	1.1 ± 0.11	1.03 ± 0.083
UBL4A (UniProt P11441)	0.923 ± 0.072	0.918 ± 0.021	0.914 ± 0.044	0.914 ± 0.11	0.904 ± 0.038	0.841 ± 0.058
UniProt P06213 and related entries	0.998 ± 0.022	1.02 ± 0.025	1.05 ± 0.025	0.961 ± 0.07	1 ± 0.028	1.01 ± 0.034
UniProt P11940 and related entries	1.02 ± 0.08	1.04 ± 0.062	1.03 ± 0.097	1.09 ± 0.05	1.04 ± 0.093	1.05 ± 0.065
UniProt P09497-2	0.993 ± 0.063	1.07 ± 0.11	1.1 ± 0.09	1.19 ± 0.14	0.996 ± 0.016	1.02 ± 0.079
UniProt P06396-2	1.35 ± 0.2	1.4 ± 0.13	1.41 ± 0.18	1.44 ± 0.14	1.4 ± 0.13	1.4 ± 0.1
TGFB1 (UniProt P01137)	0.957 ± 0.013	0.94 ± 0.021	0.936 ± 0.023	0.922 ± 0.013	0.9079 ± 0.0057	0.931 ± 0.042
ADH5 (UniProt P11766)	0.925 ± 0.041	0.926 ± 0.034	0.874 ± 0.028	0.895 ± 0.064	0.883 ± 0.028	0.895 ± 0.027
UniProt P06756 and related entries	0.987 ± 0.082	0.994 ± 0.13	0.993 ± 0.064	1.04 ± 0.11	0.988 ± 0.076	0.958 ± 0.059
HIST1H1B (UniProt P16401)	1.14 ± 0.17	1.07 ± 0.095	1.15 ± 0.11	1.33 ± 0.11	1.29 ± 0.029	1.53 ± 0.16

2 entries from above, bar-delimited:
Target | NP40-soluble protein abundance (concentration: 1mM) | NP40-soluble protein abundance (concentration: 2mM) | NP40-soluble protein abundance (concentration: 4mM) | NP40-soluble protein abundance (concentration: 6mM) | NP40-soluble protein abundance (concentration: 8mM) | NP40-soluble protein abundance (concentration: 10mM)
UniProt P11940 and related entries | 1.02 ± 0.08 | 1.04 ± 0.062 | 1.03 ± 0.097 | 1.09 ± 0.05 | 1.04 ± 0.093 | 1.05 ± 0.065
UniProt P09497-2 | 0.993 ± 0.063 | 1.07 ± 0.11 | 1.1 ± 0.09 | 1.19 ± 0.14 | 0.996 ± 0.016 | 1.02 ± 0.079
